These results are taken from paper doi:10.1101/2025.11.26.690747.

Like-named read-outs stand apart in the source and are kept apart here. Results are given in words; binding and its absence hold for the method and conditions named. In cells and extracts the contact can be indirect. These calls come from enrichment with a bait or labelling near it, and not all partners need be listed. Sequences can lack the tags named with a protein.

The target of assay [1] is T1, PfBDP1-HA-DD (P. falciparum) (UniProt Q8IJ72).
T1 sequence: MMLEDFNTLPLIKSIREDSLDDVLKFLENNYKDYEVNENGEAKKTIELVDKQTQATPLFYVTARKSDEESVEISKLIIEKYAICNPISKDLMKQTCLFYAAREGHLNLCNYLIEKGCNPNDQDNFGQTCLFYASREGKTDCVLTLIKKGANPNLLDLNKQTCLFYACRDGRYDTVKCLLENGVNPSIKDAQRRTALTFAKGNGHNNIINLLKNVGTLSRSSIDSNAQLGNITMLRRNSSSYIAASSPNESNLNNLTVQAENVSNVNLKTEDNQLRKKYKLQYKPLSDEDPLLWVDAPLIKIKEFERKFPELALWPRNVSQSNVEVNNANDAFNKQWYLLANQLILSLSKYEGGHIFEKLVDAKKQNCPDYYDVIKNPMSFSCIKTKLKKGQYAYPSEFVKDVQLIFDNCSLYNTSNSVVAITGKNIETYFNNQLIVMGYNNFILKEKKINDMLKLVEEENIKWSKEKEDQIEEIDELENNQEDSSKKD
As to the kind of experiment: affinity purification with mass spectrometry.

Assay [2] addresses T1, PfBDP1-HA-DD (P. falciparum). Put plainly: affinity purification with mass spectrometry. This is another data set of the same source.

Turning to “Chromodomain Protein 1 (PfCHD1) (from UniProt Q8IJG6 1-3328)”, the binding entry in assay [1] and in assay [2] was “binds” throughout. In the case of “PfAP2-I (endogenous, found by mass spectrometry) (P. falciparum (endogenous in parasites))”, the binding entry in assay [1] is on record as “binds”.

B1: PfBDP7 (protein, UniProt Q8IIC0 1-525)
chain: MADNNLDKNESDSSCINASDEQKSSEEKDNLGEASVVSNVNENNSSFFTKCFSKIVNFGNNTQENNIPVAHEENNNEDREYNTNESNCNRYDDEEDKKVENFDNNNINNNYLKGDGEKNIHEGGDVHTDFNNEEMINAISNYNKNELNLNRGEIYLNDNEYSFISYIILSSEFRFYPIEETKKKKRRDTLKIDDTITITDTKRIKFDNNNNNNNKIEIRKKENVTDIDADKGSNNHMNEKQVVNNSEDILKKEDEEEENLKKEGGDLLIKGNNVDKVLLDDIDIEKVRSYDKIMDAEERDKLELFDEILIHIKRNFYEKILNIETNFKNLENQIEDNHSFHFRCIIEKLKNRKYDNILYIYNDIYLYHNNLLFLSKPSSYTWMKLHELSTQITNTISDIHHKKYMQKPNRKLYHIDKEEKEKKEKKKEVLKDHEKMEYCINEEEKLAFQLLLSKLNQDTHFELFRKFKNKAVWKTLEGGEIELDDKLTRADVFREMYNWCKFQLEMKNKQSELSDSESDSSKDSY
For B1, the binding entry in assay [1] and in assay [2] was “binds” in each case.

B2: PfBDP2 (protein, UniProt Q8I5S4 1-1088)
chain: MNDYNNINNQLLIDTSSGMEHITIENNNNCIINNIDNIDYNNKTTNHIIKNNDSIISYKNNNMSSINNLIDIDNNGTSINNEFQQKNYNNNNIISDNKNMNYFSSFSNENTIDDNGNDTNYMNYDDNMNNSEYTNNHNNNHNNNHNNINSNDHNDDNLKNNNQCNSMNITDEYMSDNNISKNNSTSNILEYHINDNNNNNNINFIKKEEIIKNMDDLFIKNVNDIRSFERGILNLTQEEFIYISNKIHFLGFRFIEIPCVKTKNEKRNTYTAISKRHLNEIKNLSCSLSNSIYDAGKRKSKKTFDPFYSKAEFDSKGTYAQHDQKDTKDTNKKKAQTNNNVNNNNNNDYVNEKDIKNANIKEESHNLNSTKGNNKGTNNTYHNNNSIKSQQESDKLTSTSKGVKRSASNKFDDFDNKHNNKNVHGGSTNLGTNNSTPTHNNSNTGKGKGSKNTNSNNKKINEKESMKKRQKTNSYNEDNLMDEYEQHKKTYKKKIYRTKNPWKNYCFKILHKLKKKEIACWFLKPVNPELDGIPNYFNVIKNPMDFETIENKLINNKYNNPFEWQHDVRQIFFNAFTYHKVKNCVWNDAYKLAKEFDKLIKQGNDVKNILKDCTKNINSVYFNMKQYNDLIEHTNNTNNIINHNNISKTITNTSSDDHSGSLSSSSSSSSSISSSNYDDEAYDNVSSVNYNKRDSQMHKNVHGKKSSMYMTSASTNTLKNNLNSNQIYFPHGKNKKNEKMNKSSKYSINNNNNNNNISNKKNIRDNIKNKKDVNSNTLDDDDFEPPNVGTIPEPPGIQKIGINDKGLNNYQVNLLFKNFKRLAPNQRKAALEIIQDDLGILAENHMFDRFFTFDTDLLSIEKQKRIFLYINHMGRINLEHYKSSLISANKVNNSSFSKGKMGQKIVHNKSFIKHGSNNSNINAHYEKRRTNRYVSSSSNSSDSSTSNSSDSSSFSTSSDDSDSDSDSDMDSDSYDKKRKIKRPFPNDKKKELSNKFLEANRRKTLPQYKPVNENRKSLQIRDDVMGMHADFLGSMDSPRNTKNKHRASVSAWPEWKGQVIQQAILTQHKTNVPINKKELIAEGYDAKI
As to B2, the binding entry in assay [1] and in assay [2] was “binds” in each case.
